Test results: the supplement of paper PMC10849652
The other results are listed elsewhere or left out.

Amino acid sequences for entries named in this document (tags omitted). A change or cut given only in a name is not applied to a line headed by its entry.
UniProt O15260: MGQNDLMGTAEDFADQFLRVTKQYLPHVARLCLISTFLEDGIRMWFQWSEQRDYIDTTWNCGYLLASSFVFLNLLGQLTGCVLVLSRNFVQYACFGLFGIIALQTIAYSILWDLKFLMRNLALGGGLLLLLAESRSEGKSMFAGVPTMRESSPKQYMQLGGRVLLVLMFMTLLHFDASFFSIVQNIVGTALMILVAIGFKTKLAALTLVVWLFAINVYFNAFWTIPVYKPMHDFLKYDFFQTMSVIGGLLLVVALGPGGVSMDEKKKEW
UniProt Q15750: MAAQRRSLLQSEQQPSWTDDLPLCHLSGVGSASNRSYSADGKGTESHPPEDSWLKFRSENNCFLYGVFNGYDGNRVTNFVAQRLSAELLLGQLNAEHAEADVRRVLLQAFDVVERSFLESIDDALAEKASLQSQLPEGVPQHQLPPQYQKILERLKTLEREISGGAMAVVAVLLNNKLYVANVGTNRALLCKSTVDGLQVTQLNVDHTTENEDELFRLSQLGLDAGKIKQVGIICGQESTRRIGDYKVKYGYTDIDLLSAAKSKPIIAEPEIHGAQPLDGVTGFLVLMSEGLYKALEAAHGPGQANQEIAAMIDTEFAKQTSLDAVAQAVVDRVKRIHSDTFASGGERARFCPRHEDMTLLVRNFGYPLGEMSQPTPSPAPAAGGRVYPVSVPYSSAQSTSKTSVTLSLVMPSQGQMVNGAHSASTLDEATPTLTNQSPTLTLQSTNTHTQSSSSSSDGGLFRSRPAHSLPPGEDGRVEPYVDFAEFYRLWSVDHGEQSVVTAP
UniProt Q8NHG7: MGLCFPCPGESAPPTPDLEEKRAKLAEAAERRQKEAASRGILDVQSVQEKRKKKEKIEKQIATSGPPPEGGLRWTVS
UniProt Q9H169: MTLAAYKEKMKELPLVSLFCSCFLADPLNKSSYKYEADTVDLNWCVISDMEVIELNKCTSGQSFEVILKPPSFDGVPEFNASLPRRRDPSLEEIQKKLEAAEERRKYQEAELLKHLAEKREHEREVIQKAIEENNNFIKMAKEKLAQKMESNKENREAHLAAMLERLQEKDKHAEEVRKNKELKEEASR
UniProt Q8NBJ7: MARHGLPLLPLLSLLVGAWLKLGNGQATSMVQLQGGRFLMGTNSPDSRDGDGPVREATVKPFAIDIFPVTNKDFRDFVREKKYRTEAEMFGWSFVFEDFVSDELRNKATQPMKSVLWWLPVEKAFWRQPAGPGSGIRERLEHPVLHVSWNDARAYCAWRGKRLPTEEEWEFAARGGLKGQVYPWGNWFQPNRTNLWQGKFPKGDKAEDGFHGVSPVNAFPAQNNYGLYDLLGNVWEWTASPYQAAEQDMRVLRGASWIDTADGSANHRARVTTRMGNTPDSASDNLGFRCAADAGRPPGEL
UniProt Q92797: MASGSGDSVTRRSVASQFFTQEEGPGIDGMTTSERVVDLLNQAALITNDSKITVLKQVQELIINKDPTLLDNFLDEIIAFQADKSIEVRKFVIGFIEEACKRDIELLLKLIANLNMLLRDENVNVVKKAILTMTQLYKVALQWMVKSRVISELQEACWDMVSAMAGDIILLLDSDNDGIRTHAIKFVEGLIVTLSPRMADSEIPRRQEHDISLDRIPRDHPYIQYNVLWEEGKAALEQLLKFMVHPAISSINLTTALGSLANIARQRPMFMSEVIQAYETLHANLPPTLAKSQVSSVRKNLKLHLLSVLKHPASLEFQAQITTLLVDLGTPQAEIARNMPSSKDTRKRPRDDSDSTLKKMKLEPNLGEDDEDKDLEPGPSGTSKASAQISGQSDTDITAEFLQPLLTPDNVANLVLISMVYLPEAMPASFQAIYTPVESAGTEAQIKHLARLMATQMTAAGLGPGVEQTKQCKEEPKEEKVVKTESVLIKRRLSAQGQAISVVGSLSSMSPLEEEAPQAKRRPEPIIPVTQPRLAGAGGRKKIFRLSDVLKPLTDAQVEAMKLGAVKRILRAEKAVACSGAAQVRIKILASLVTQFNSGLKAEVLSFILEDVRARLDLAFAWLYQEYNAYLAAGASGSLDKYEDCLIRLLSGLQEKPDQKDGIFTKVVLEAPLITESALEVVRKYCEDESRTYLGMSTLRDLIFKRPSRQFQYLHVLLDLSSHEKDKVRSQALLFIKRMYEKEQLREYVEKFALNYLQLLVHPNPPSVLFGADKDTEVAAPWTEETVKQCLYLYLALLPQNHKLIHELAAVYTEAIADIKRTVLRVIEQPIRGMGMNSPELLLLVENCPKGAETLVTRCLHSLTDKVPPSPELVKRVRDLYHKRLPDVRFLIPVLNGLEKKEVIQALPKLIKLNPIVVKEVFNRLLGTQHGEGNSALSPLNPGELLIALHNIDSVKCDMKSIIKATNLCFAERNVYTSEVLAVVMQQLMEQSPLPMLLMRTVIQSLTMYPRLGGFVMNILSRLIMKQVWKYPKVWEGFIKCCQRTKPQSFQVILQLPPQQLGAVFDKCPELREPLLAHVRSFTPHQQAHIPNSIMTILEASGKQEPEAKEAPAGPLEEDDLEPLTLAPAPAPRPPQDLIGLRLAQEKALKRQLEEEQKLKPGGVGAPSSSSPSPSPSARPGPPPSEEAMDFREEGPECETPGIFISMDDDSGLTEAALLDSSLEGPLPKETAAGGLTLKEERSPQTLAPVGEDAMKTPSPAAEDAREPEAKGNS
UniProt P51687: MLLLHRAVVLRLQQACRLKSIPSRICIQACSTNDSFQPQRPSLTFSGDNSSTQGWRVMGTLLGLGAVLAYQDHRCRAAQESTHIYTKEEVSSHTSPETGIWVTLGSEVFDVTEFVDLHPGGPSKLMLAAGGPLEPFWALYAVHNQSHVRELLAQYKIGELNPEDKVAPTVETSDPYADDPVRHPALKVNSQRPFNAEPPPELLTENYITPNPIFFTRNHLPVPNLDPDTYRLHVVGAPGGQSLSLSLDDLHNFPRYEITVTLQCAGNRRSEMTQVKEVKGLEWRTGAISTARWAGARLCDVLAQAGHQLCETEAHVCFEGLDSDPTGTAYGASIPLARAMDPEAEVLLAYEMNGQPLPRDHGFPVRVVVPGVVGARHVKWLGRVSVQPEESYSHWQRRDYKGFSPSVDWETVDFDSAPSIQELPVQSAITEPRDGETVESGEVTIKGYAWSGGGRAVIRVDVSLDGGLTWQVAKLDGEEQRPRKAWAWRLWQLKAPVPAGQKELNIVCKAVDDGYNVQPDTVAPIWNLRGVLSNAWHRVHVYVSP
UniProt Q15833: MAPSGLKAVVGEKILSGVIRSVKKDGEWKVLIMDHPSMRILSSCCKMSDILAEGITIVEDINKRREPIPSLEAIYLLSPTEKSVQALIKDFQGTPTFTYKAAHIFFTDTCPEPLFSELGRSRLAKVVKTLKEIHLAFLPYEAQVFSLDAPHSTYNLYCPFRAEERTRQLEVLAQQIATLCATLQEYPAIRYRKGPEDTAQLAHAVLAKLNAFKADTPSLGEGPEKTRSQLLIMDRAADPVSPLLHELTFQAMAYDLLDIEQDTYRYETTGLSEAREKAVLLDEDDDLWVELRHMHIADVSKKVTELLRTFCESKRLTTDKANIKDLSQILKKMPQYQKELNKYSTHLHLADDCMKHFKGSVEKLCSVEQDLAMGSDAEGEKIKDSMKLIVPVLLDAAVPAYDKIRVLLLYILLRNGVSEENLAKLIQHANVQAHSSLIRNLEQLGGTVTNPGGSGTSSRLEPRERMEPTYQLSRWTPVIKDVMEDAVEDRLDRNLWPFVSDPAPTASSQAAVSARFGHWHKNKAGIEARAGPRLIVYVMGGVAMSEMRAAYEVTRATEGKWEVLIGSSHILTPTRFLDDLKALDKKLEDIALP
UniProt O43815: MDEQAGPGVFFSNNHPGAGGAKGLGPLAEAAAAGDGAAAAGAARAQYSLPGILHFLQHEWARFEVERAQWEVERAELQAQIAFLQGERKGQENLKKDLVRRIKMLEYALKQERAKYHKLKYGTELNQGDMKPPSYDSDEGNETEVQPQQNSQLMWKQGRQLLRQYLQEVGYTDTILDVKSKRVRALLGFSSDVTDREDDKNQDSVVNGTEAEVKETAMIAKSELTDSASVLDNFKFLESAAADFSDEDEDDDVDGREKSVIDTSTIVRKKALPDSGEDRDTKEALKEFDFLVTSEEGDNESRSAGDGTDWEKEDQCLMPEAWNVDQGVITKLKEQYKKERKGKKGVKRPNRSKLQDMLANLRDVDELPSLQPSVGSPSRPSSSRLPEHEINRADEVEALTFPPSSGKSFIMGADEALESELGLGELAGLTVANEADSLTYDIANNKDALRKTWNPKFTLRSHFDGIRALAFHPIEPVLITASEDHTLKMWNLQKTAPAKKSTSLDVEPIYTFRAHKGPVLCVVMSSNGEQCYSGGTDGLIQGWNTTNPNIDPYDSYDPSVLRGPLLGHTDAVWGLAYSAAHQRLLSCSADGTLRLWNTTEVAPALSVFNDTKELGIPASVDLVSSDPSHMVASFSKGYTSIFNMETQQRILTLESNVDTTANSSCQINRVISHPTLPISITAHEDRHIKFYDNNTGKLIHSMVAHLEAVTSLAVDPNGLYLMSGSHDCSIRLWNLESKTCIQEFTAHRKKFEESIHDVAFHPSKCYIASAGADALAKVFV
UniProt Q8WXE9: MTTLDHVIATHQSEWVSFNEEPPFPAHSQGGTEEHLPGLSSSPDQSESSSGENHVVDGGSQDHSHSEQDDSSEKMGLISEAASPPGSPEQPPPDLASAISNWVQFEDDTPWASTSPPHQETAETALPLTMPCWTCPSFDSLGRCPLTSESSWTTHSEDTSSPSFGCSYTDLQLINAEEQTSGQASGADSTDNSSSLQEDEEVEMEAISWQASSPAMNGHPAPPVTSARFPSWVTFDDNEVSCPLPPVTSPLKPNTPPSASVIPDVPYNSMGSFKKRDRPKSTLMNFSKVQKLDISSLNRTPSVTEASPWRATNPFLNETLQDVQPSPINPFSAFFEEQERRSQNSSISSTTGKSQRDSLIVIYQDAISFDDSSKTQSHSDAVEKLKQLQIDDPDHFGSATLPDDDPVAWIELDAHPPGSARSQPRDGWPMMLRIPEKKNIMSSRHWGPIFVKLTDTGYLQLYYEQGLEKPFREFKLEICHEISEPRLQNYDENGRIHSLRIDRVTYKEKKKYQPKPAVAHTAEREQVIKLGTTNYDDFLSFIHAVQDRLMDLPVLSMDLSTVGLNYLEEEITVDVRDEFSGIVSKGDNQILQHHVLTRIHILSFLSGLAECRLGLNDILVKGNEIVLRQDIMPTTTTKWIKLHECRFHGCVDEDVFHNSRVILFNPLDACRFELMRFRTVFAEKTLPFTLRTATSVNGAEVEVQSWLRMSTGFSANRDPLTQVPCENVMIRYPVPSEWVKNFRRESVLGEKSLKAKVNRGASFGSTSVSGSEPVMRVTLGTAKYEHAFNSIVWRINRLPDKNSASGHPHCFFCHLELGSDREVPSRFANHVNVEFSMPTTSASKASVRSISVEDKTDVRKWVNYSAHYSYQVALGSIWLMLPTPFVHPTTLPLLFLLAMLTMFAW
UniProt Q8IX01: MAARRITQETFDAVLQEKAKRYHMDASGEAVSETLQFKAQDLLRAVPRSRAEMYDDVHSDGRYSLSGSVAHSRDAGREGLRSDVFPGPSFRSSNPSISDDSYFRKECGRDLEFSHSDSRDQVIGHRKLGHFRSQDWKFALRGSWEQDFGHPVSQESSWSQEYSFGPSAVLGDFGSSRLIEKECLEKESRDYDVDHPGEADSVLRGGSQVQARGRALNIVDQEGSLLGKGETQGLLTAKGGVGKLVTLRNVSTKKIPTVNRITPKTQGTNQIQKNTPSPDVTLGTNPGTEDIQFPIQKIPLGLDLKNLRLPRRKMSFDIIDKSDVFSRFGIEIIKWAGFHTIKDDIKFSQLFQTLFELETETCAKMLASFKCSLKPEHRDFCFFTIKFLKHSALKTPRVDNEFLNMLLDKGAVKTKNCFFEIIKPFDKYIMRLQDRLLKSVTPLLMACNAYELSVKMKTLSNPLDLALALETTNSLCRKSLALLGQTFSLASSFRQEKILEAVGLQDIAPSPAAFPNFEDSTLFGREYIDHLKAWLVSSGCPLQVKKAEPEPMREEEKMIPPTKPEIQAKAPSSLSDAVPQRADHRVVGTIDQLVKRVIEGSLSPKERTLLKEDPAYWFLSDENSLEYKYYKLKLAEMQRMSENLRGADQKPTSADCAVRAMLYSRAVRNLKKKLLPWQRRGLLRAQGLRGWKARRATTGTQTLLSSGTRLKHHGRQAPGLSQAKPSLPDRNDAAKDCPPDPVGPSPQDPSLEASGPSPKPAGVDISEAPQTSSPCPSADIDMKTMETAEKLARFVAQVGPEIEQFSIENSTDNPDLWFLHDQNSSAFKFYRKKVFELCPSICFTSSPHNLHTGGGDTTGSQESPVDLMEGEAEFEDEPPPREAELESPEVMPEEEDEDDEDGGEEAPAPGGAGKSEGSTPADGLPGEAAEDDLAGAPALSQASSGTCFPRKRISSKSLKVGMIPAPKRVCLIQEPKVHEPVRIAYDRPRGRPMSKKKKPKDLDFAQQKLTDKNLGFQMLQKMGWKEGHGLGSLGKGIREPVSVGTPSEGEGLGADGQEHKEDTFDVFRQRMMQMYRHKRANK

Assays:
Assay in all cases: log2 fold change, soluble protein after heating vs DMSO (PISA); higher = thermal stabilisation; K562 lysate, 10 uM; active = over 0.2 and 3.5 SD of the protein, either way, in both replicates (recomputed)
erlotinib = compound: C#Cc1cccc(Nc2ncnc3cc(OCCOC)c(OCCOC)cc23)c1 [erlotinib]
Outline: (§1)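 Log-two fold change in thermal stability relative to solvent controls is reported from duplicates. For each sample, crude K562 extract from dounce-homogenised pellets in PBS pH 7.4 with 1 mM MgCl2, at 1 mg/mL protein, was treated with 10 μM compound for 30 min. Aliquots heated for 3 min across 48°C-58°C were pooled, brought to 0.5% NP-40 at 4°C and cleared at 21,000xg for 90 min. The supernatant was quantified by TMTpro 16plex LC-MS/MS with channel sums equalised.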

[1] = compound: C/C(=N\NC(=O)C1=CC(=CC=C1)S(=O)(=O)N2CCOCC2)/C3=C(C=CC(=C3)Cl)O
Outline: as §1

[2] = compound: C1=CC(=CC=C1C2=NC3=C(N2)C=C(C=C3)C(=O)N)OC4=CC=C(C=C4)Cl
Outline: as §1

[3] = compound: C1=CC2=C(C=CC(=C2)/C=C\3/C(=O)NC(=NCC4=CC=CS4)S3)N=C1
Outline: as §1

[4] = compound: C1=CC2=NC=CN=C2C=C1/C=C/3\C(=O)NC(=O)S3
Outline: as §1

[5] = compound: C1=CC=C(C=C1)C2=NC(=C(N2)C3=CC=NC=C3)C4=CC(=C(C=C4)Cl)O
Outline: as §1

[6] = compound: C1=CC=C2C(=C1)C3=NNC4=CC=CC(=C43)C2=O
Outline: as §1

[7] = compound: C1CCN(C1)C(=O)NC2=CC=CC(=C2)NC3=NC=C(C(=N3)NCCC4=CN=CN4)Br
Outline: as §1

[8] = compound: C1CN(CCC1(CC2=CC=C(C=C2)Cl)N)C3=NC=NC4=C3C=CN4
Outline: as §1

IRAK-1-4 Inhibitor I = compound: C1COCCN1CCN2C3=CC=CC=C3N=C2NC(=O)C4=CC(=CC=C4)[N+](=O)[O-] [IRAK-1-4 Inhibitor I]
Outline: as §1

ibrutinib = compound: C=CC(=O)N1CCC[C@@H](n2nc(-c3ccc(Oc4ccccc4)cc3)c3c(N)ncnc32)C1 [ibrutinib]
Outline: as §1

[9] = compound: CC(=O)c1cnc2ccc(-c3cc(Cl)c(O)c(Cl)c3)nc2c1N[C@H]1CC[C@H](CN(C)C)CC1
Outline: as §1

ralimetinib = compound: CC(C)(C)Cn1c(N)nc2ccc(-c3[nH]c(C(C)(C)C)nc3-c3ccc(F)cc3)nc21 [ralimetinib]
Outline: as §1

[10] = compound: CC(C)(O)CC(=O)NCCn1ccc2ncnc(Nc3ccc(Oc4cccc(C(F)(F)F)c4)c(Cl)c3)c21
Outline: as §1

[11] = compound: CC(C)C1=C2N=C(C=C(N2N=C1)NCC3=CC=CC=C3)NCCCCCCN
Outline: as §1

[12] = compound: CC1=C(C(CC(=O)N1)C2=CC=C(C=C2)C(F)(F)F)C(=O)NC3=C(C=C4C(=C3)C=NN4)F
Outline: as §1

[13] = compound: CC1=C(C2=C(C=C1)C(=O)C3=CC=CC=C3N2CCCN)C
Outline: as §1

[14] = compound: CC1=C(C=C(C=C1)NC(=O)C2=CC(=CC=C2)C(C)(C)C#N)NC3=CC4=C(C=C3)N=CN(C4=O)C
Outline: as §1

[15] = compound: CC1=C(C=C(C=C1)NC(=O)C2=CC(=CC=C2)N(C)C)NC(=O)C3=CC=C(C=C3)O
Outline: as §1

[16] = compound: CC1=CC=C(C=C1)SC2=C3C=C(SC3=CN=C2)C(=O)N
Outline: as §1

Measured: log2 fold change

SURF4 (UniProt O15260)
inactive: erlotinib 0.017 | [1] -0.048 | [2] -0.012 | [3] -0.008 | [4] 0.015 | [5] 0.014 | [6] -0.062 | [7] -0.019 | [8] 0.021 | IRAK-1-4 Inhibitor I 0.007 | ibrutinib 0.003 | [9] 0.015 | ralimetinib 0.013 | [10] -0.068 | [11] -0.059 | [12] 0.033 | [13] 0.01 | [14] 0.015 | [15] -0.049 | [16] 0.004

TAB1 (UniProt Q15750)
inactive: erlotinib -0.004 | [1] 0.042 | [2] -0.001 | [3] -0.022 | [4] -0.019 | [5] -0.02 | [6] 0.032 | [7] 0.002 | [8] 0.004 | IRAK-1-4 Inhibitor I -0.001 | ibrutinib 0.043 | [9] 0.012 | ralimetinib 0.047 | [10] 0.011 | [11] -0.006 | [12] -0.026 | [13] 0.019 | [14] 0.008 | [15] 0.001 | [16] -0.015

SVIP (UniProt Q8NHG7)
inactive: erlotinib 0.037 | [1] 0.013 | [2] -0.004 | [3] -0.007 | [4] 0.001 | [5] 0.041 | [6] -0.012 | [7] 0.107 | [8] 0.057 | IRAK-1-4 Inhibitor I 0.001 | ibrutinib 0.088 | [9] -0.031 | ralimetinib 0.01 | [10] -0.062 | [11] -0.017 | [12] -0.029 | [13] -0.014 | [14] 0.075 | [15] 0.017 | [16] -0.019

STMN4 isoform 2 (UniProt Q9H169)
inactive: erlotinib -0.077 | [1] 0.003 | [2] -0.094 | [3] -0.041 | [4] 0.013 | [5] -0.058 | [6] 0.087 | [7] 0.029 | [8] -0.065 | IRAK-1-4 Inhibitor I -0.062 | ibrutinib 0.048 | [9] -0.163 | ralimetinib 0.009 | [10] 0.027 | [11] -0.064 | [12] -0.091 | [13] 0.066 | [14] -0.072 | [15] -0.053 | [16] -0.065

SUMF2 (UniProt Q8NBJ7)
inactive: erlotinib 0.002 | [1] 0.006 | [2] 0.026 | [3] -0.009 | [4] 0.003 | [5] -0.007 | [6] -0.066 | [7] -0.032 | [8] 0.014 | IRAK-1-4 Inhibitor I 0.032 | ibrutinib -0.019 | [9] -0.03 | ralimetinib 0.021 | [10] -0.031 | [11] -0.015 | [12] -0.022 | [13] 0.015 | [14] -0.006 | [15] 0.028 | [16] 0.016

SYMPK (UniProt Q92797)
inactive: erlotinib 0.016 | [1] 0.012 | [2] -0.008 | [3] 0.017 | [4] -0.034 | [5] 0.002 | [6] -0.031 | [7] -0.014 | [8] 0.022 | IRAK-1-4 Inhibitor I 0.007 | ibrutinib 0.009 | [9] -0.02 | ralimetinib 0.004 | [10] -0.053 | [11] -0.014 | [12] 0.007 | [13] -0.015 | [14] -0.01 | [15] 0.033 | [16] 0.006

Copied from the results shown (2 entries):
TAB1 (UniProt Q15750)
inactive: erlotinib -0.004 | [1] 0.042 | [2] -0.001 | [3] -0.022 | [4] -0.019 | [5] -0.02 | [6] 0.032 | [7] 0.002 | [8] 0.004 | IRAK-1-4 Inhibitor I -0.001 | ibrutinib 0.043 | [9] 0.012 | ralimetinib 0.047 | [10] 0.011 | [11] -0.006 | [12] -0.026 | [13] 0.019 | [14] 0.008 | [15] 0.001 | [16] -0.015

SVIP (UniProt Q8NHG7)
inactive: erlotinib 0.037 | [1] 0.013 | [2] -0.004 | [3] -0.007 | [4] 0.001 | [5] 0.041 | [6] -0.012 | [7] 0.107 | [8] 0.057 | IRAK-1-4 Inhibitor I 0.001 | ibrutinib 0.088 | [9] -0.031 | ralimetinib 0.01 | [10] -0.062 | [11] -0.017 | [12] -0.029 | [13] -0.014 | [14] 0.075 | [15] 0.017 | [16] -0.019

Continued:

SUOX (UniProt P51687)
inactive: erlotinib -0.045 | [1] 0.061 | [2] 0.049 | [3] 0.058 | [4] 0.02 | [5] -0.003 | [6] 0.002 | [7] -0.028 | [8] 0.056 | IRAK-1-4 Inhibitor I -0.014 | ibrutinib -0.013 | [9] 0.004 | ralimetinib -0.033 | [10] -0.02 | [11] 0.033 | [12] 0 | [13] -0.016 | [14] 0.023 | [15] 0.044 | [16] -0.016

SUPT6H (UniProt Q7KZ85)
inactive: erlotinib 0.006 | [1] 0.036 | [2] 0 | [3] -0.016 | [4] -0.021 | [5] 0.005 | [6] -0.015 | [7] -0.08 | [8] 0.04 | IRAK-1-4 Inhibitor I -0.005 | ibrutinib 0.023 | [9] -0.037 | ralimetinib 0.006 | [10] -0.057 | [11] -0.028 | [12] -0.008 | [13] -0.036 | [14] 0.022 | [15] 0.014 | [16] -0.005

STXBP2 (UniProt Q15833)
inactive: erlotinib -0.002 | [1] 0.042 | [2] -0.021 | [3] 0.019 | [4] -0.001 | [5] -0.004 | [6] 0.001 | [7] 0.011 | [8] -0.002 | IRAK-1-4 Inhibitor I 0.017 | ibrutinib 0.009 | [9] 0.009 | ralimetinib -0.003 | [10] 0.007 | [11] -0.005 | [12] -0.02 | [13] 0.005 | [14] 0.002 | [15] 0.039 | [16] 0.004

STRN (UniProt O43815)
inactive: erlotinib 0.018 | [1] -0.02 | [2] 0.014 | [3] 0.019 | [4] 0.007 | [5] -0.001 | [6] -0.023 | [7] -0.032 | [8] -0.006 | IRAK-1-4 Inhibitor I -0.015 | ibrutinib 0.041 | [9] -0.026 | ralimetinib 0.011 | [10] 0 | [11] -0.007 | [12] 0.004 | [13] 0.001 | [14] -0.016 | [15] -0.015 | [16] 0

STON2 isoform 3 (UniProt Q8WXE9)
inactive: erlotinib -0.041 | [1] 0.017 | [2] 0.042 | [3] -0.052 | [4] 0.005 | [5] -0.009 | [6] -0.095 | [7] -0.016 | [8] -0.028 | IRAK-1-4 Inhibitor I -0.018 | ibrutinib 0.058 | [9] -0.024 | ralimetinib 0.048 | [10] -0.045 | [11] -0.007 | [12] 0.032 | [13] -0.017 | [14] -0.02 | [15] 0.049 | [16] 0.046

SYNJ2BP (UniProt P57105)
inactive: erlotinib -0.017 | [1] 0.011 | [2] -0.008 | [3] 0.062 | [4] -0.03 | [5] -0.013 | [6] -0.158 | [7] -0.088 | [8] -0.044 | IRAK-1-4 Inhibitor I -0.065 | ibrutinib 0.185 | [9] 0.026 | ralimetinib 0.006 | [10] 0 | [11] -0.009 | [12] 0.051 | [13] -0.03 | [14] -0.095 | [15] 0.002 | [16] -0.042

SUGP2 (UniProt Q8IX01)
inactive: erlotinib 0.04 | [1] -0.053 | [2] -0.069 | [3] -0.004 | [4] 0.064 | [5] -0.024 | [6] -0.071 | [7] 0.053 | [8] 0.044 | IRAK-1-4 Inhibitor I 0.098 | ibrutinib 0.097 | [9] -0.014 | ralimetinib 0.097 | [10] -0.038 | [11] 0.155 | [12] 0.038 | [13] -0.069 | [14] -0.134 | [15] -0.126 | [16] -0.022

SUPT4H1 (UniProt P63272)
inactive: erlotinib 0.013 | [1] -0.024 | [2] 0.014 | [3] 0.017 | [4] 0.068 | [5] 0.019 | [6] -0.037 | [7] 0.117 | [8] 0.036 | IRAK-1-4 Inhibitor I -0.001 | ibrutinib -0.029 | [9] -0.017 | ralimetinib -0.097 | [10] -0.028 | [11] -0.02 | [12] -0.018 | [13] -0.018 | [14] 0.05 | [15] 0.002 | [16] -0.016

STK39 (UniProt Q9UEW8)
inactive: erlotinib 0.006 | [1] 0.08 | [2] -0.001 | [3] -0.014 | [4] -0.03 | [5] 0 | [6] -0.133 | [7] -0.004 | [8] -0.013 | IRAK-1-4 Inhibitor I -0.003 | ibrutinib -0.114 | [9] 0.011 | ralimetinib 0.012 | [10] -0.041 | [11] -0.015 | [12] 0.007 | [13] -0.045 | [14] -0.02 | [15] 0.037 | [16] -0.019

SYNRG (UniProt Q9UMZ2)
inactive: erlotinib 0.029 | [1] -0.037 | [2] 0.078 | [3] 0.015 | [4] -0.012 | [5] -0.019 | [6] -0.01 | [7] -0.004 | [8] 0.021 | IRAK-1-4 Inhibitor I 0.016 | ibrutinib -0.023 | [9] -0.028 | ralimetinib -0.016 | [10] -0.083 | [11] 0.015 | [12] -0.019 | [13] -0.018 | [14] -0.042 | [15] 0.022 | [16] -0.052
